# Data reported in patent US20130001162A1, “Apparatus, System, and Method for Forward Osmosis in Water Reuse” (priority 2011, published 2013).
# Test: Rejection of spiked organic micropollutants by submerged plate and frame FO membrane, SWWE feed, seawater draw solution
# Conditions: SWWE feed, seawater draw solution, calculated with equation 3
row,SMILES,Rejection by FO membrane
1,CC(C)(c1ccc(O)cc1)c1ccc(O)cc1 [Bisphenol A],8-39%

# Same assay, conditions: diluted seawater draw solution after FO, composite sample 3rd and 4th day of cycles
row,SMILES,"concentration, DS diluted"
1,CC(C(=O)O)c1cccc(Oc2ccccc2)c1 (stereo not drawn) [Fenoprofen],0.67 µg/L
2,Cc1ncc([N+](=O)[O-])n1CCO [Metronidazole],4.1 µg/L
3,NC(=O)N1c2ccccc2C=Cc2ccccc21 [Carbamazepine],2.5 µg/L
4,Cn1c(=O)c2c(ncn2C)n(C)c1=O [Caffeine],3.2 µg/L
5,CC(C)(c1ccc(O)cc1)c1ccc(O)cc1 [Bisphenol A],7.0 µg/L
6,CC(=O)Nc1ccc(O)cc1 [Acetaminophen],5.9 µg/L
7,"C1COCCO1 [1,4-dioxane]",4.3 µg/L
8,C#C[C@]1(O)CC[C@H]2[C@@H]3CCc4cc(O)ccc4[C@H]3CC[C@@]21C [17α-ethynilestradiol],1.5 µg/L
9,Cc1ccc(C)c(OCCCC(C)(C)C(=O)O)c1 [Gemfibrozil],0.62 µg/L
10,CC(C(=O)O)c1cccc(C(=O)c2ccccc2)c1 (stereo not drawn) [Ketoprofen],0.39 µg/L
11,COc1ccc2cc([C@H](C)C(=O)O)ccc2c1 [Naproxen],0.62 µg/L
